Results taken from PMC4287497, “Phosphorylation of Elp1 by Hrr25 Is Required for Elongator-Dependent tRNA Modification in Yeast” (PLoS Genetics, 2015).
Results are given in words; binding and its absence hold for the method and conditions named. In cells and extracts the contact can be indirect. Some binding calls cover weakened binding; strength is not graded here. For some assays here: Tags and fused reporters may be left off the sequences shown.

How the values were obtained:
[1] = target: T1, Elp1-S1198A S1202A T1204A S1205A T1206A-6HA (S. cerevisiae) (UniProt Q06706); test: co-IP; Elp2-myc immunoprecipitated from extracts of elp1Δ yeast strains carrying plasmid-borne ELP1-6HA alleles (antibody coupled to Dynabeads, B60 buffer); Western blot with anti-myc, anti-HA and anti-Hrr25
T1 sequence: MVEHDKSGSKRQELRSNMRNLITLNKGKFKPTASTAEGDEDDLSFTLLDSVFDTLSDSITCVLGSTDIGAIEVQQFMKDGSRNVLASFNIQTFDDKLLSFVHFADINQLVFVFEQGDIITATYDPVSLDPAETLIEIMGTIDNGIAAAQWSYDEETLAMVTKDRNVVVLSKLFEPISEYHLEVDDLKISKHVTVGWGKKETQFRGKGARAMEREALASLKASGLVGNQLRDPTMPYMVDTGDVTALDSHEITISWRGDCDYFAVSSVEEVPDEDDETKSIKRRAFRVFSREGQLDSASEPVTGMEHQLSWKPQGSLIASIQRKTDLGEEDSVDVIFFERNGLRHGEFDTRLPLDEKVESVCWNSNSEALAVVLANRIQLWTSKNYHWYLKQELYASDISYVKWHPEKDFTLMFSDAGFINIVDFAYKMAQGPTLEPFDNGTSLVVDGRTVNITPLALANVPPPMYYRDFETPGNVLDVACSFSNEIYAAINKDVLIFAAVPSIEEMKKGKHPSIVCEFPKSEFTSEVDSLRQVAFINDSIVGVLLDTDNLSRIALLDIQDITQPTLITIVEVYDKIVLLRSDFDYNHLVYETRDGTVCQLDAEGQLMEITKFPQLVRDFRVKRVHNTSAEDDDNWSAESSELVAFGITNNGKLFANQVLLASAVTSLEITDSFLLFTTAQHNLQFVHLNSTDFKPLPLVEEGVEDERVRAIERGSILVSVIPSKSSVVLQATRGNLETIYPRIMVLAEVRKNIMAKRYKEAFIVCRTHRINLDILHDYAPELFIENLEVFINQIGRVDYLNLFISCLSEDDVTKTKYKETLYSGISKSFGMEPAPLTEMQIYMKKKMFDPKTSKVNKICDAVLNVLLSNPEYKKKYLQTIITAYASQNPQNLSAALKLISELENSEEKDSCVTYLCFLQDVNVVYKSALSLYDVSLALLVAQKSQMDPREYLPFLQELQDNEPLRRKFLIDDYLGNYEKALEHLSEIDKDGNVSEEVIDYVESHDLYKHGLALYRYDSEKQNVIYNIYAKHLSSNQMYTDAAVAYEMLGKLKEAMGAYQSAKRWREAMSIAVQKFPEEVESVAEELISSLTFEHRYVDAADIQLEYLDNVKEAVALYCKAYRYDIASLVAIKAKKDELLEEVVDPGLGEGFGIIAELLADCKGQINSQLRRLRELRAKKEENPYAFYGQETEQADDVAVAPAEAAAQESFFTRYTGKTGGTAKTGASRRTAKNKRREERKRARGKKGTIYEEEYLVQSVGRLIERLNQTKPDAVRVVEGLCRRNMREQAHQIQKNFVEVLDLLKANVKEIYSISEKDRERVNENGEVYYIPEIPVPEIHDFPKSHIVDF

[2] = target: T2, Elp1-HA (S7 Fig) (S. cerevisiae) (UniProt Q06706); test: co-IP; Elp1-HA immunoprecipitated from extracts of HRR25 and hrr25-2 strains; Western blot with anti-HA, anti-myc and anti-Hrr25; untagged ELP1 as control
T2 sequence: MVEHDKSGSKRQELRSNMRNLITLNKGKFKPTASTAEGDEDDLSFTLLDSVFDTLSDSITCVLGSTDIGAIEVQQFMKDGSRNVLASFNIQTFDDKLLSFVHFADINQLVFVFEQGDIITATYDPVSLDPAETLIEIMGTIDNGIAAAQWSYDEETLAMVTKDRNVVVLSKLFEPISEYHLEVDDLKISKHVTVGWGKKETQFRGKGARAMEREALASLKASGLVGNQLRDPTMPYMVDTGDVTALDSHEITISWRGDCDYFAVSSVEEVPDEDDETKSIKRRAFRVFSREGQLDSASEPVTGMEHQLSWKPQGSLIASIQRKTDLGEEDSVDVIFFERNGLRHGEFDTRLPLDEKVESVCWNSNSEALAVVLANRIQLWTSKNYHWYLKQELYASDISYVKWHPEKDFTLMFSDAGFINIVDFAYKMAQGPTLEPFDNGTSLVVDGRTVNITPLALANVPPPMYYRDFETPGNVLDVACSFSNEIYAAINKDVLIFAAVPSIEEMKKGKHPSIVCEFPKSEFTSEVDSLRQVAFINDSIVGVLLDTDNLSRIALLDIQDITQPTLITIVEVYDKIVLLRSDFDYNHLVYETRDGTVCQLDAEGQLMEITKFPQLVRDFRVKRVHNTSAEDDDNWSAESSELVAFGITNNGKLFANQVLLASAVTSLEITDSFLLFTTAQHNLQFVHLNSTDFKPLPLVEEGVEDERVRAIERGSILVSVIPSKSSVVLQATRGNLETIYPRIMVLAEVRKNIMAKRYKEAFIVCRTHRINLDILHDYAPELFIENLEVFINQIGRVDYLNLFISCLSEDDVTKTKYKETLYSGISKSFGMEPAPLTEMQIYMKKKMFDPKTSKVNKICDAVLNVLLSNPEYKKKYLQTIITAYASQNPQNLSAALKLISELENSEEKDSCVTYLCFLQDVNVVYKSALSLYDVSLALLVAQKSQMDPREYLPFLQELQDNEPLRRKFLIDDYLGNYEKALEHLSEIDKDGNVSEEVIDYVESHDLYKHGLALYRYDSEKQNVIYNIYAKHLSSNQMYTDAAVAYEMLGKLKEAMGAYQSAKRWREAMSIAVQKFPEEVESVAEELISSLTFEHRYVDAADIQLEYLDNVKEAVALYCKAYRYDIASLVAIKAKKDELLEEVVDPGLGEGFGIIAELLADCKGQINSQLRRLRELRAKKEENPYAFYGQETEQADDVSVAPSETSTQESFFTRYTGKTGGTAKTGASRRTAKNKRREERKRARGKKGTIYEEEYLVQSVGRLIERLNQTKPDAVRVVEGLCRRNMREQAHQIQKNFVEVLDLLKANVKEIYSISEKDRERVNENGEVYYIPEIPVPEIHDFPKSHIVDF

binding [1]: binds | binding [2]: binds
B1: Hrr25 protein kinase (casein kinase I), endogenous (enzyme, UniProt P29295 1-494)
chain: MDLRVGRKFRIGRKIGSGSFGDIYHGTNLISGEEVAIKLESIRSRHPQLDYESRVYRYLSGGVGIPFIRWFGREGEYNAMVIDLLGPSLEDLFNYCHRRFSFKTVIMLALQMFCRIQYIHGRSFIHRDIKPDNFLMGVGRRGSTVHVIDFGLSKKYRDFNTHRHIPYRENKSLTGTARYASVNTHLGIEQSRRDDLESLGYVLIYFCKGSLPWQGLKATTKKQKYDRIMEKKLNVSVETLCSGLPLEFQEYMAYCKNLKFDEKPDYLFLARLFKDLSIKLEYHNDHLFDWTMLRYTKAMVEKQRDLLIEKGDLNANSNAASASNSTDNKSETFNKIKLLAMKKFPTHFHYYKNEDKHNPSPEEIKQQTILNNNAASSLPEELLNALDKGMENLRQQQPQQQVQSSQPQPQPQQLQQQPNGQRPNYYPEPLLQQQQRDSQEQQQQVPMATTRATQYPPQINSNNFNTNQASVPPQMRSNPQQPPQDKPAGQSIWL
